Measured data: PubChem BioAssay AID1508597 (Cure First, 2020)

Screen: 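Knock-downs altering ovarian cancer cell survival with or without PARP inhibitor rucaparib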 (primary screen)
System: human ovarian carcinoma lines grown from tumours: OCI-P5x (papillary serous) and OCI-C5x (clear cell)
Knock-down reagent: siRNA pool against human genes, 1.25 pmol siRNA per well
Time to read-out: 72 h or 96 h, depending on the cell culture
Treatment: rucaparib 20 µM (about IC30) or vehicle, present until read-out
Rucaparib or vehicle: Rucaparib
Cell line: OCI-P5x (serous)
Measured: 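ATP luminescence measured at 72 or 96 h according to the culture, then normalised and expressed as percent viability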
Direction: viability, normalised: higher = more viable cells remaining
Active means: 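a well counts as a hit if its normalised viability is under 80 percent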
Calls: active = viability under 80%; inactive = viability 80% or more
This is a random part of the about 2,100 reagents, in one setting of the screen. 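Calls flag viability under 80% in either arm, not effects specific to rucaparib; the reference for percent is not stated.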 The record does not give: the 100% reference.

| Target gene | technical replicate | viability, normalised (%) | Outcome |
| --- | --- | --- | --- |
| PDCD2L (GeneID 84306) | 1 | 65.3 | active |
| PDCD2L (GeneID 84306) | 2 | 57.7 | active |
| PDCD2L (GeneID 84306) | 3 | 77.9 | active |
| WWTR1 (GeneID 25937) | 1 | 47.2 | active |
| WWTR1 (GeneID 25937) | 2 | 62.5 | active |
| WWTR1 (GeneID 25937) | 3 | 72.3 | active |
| HUNK (GeneID 30811) | 1 | 111 | inactive |
| HUNK (GeneID 30811) | 2 | 69.6 | active |
| HUNK (GeneID 30811) | 3 | 53.2 | active |
| MCL1 (GeneID 4170) | 1 | 42.3 | active |
| MCL1 (GeneID 4170) | 2 | 48.5 | active |
| MCL1 (GeneID 4170) | 3 | 47.2 | active |
| DUT (GeneID 1854) | 1 | 47.2 | active |
| DUT (GeneID 1854) | 2 | 49 | active |
| DUT (GeneID 1854) | 3 | 49.9 | active |

Reprinted from above (3 entries):
| Target gene | technical replicate | viability, normalised (%) | Outcome |
| --- | --- | --- | --- |
| HUNK (GeneID 30811) | 1 | 111 | inactive |
| HUNK (GeneID 30811) | 2 | 69.6 | active |
| HUNK (GeneID 30811) | 3 | 53.2 | active |

The list goes on.
| Target gene | technical replicate | viability, normalised (%) | Outcome |
| --- | --- | --- | --- |
| PHF21A (GeneID 51317) | 1 | 39.3 | active |
| PHF21A (GeneID 51317) | 2 | 34.4 | active |
| PHF21A (GeneID 51317) | 3 | 38.5 | active |
| SLC6A3 (GeneID 6531) | 1 | 46.7 | active |
| SLC6A3 (GeneID 6531) | 2 | 59.2 | active |
| SLC6A3 (GeneID 6531) | 3 | 50.8 | active |
| DEK (GeneID 7913) | 1 | 52.9 | active |
| DEK (GeneID 7913) | 2 | 57.2 | active |
| DEK (GeneID 7913) | 3 | 44.8 | active |
